Reference: paper PMC7819943, “Rice protein-binding microarrays: a tool to detect cis-acting elements near promoter regions in rice”
This is one part of the list.

By UniProt entry, the sequences of proteins in these tests, tags left out.
UniProt Q0JBA9, entry or part of it: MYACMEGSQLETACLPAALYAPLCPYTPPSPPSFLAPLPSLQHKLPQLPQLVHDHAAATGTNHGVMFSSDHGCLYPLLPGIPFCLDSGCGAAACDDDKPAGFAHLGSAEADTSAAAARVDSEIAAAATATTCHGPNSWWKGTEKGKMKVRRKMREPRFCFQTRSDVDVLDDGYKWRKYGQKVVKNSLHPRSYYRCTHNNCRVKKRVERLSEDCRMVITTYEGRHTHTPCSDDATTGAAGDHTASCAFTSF

What follows are sequences tested against OsWRKY34 (Oryza sativa, UniProt Q0JBA9 1-250) (assay: protein-binding microarray (RPBM); PBS, 2% BSA, 51.3 ng/ul salmon testes DNA, 50 uM zinc acetate, 200 nM TF, 25 C, 1 h; high values mean tight binding). Settings: protein: recombinant; tags: N-terminal polyhistidine and DsRed monomer fusion (pET32a); label: CyDye5-dUTP incorporated in the synthesized complementary strand; 3' TTTTT single-stranded linker to array surface; dsDNA, one strand shown.
In short: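 Ni–NTA purification followed expression in E. coli BL21-CodonPlus of transcription factors fused N-terminally to a polyhistidine tag and DsRed. At 200 nM in PBS with 2% BSA, salmon testes DNA and 50 µM zinc acetate, the protein was incubated for 1 h at 25 °C with a custom Agilent array that had been primer-extended with Cy5-dUTP and blocked with 2% BSA. After washing, the array was read on an Axon 4000B scanner. The binding signal is per-feature fluorescence intensity in arbitrary units.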

| Sequence | binding signal |
| --- | --- |
| TGTTATGTATGTTTCATCTTGTATTATCCCATGTATCAGTCGGAGTCACCTAGTGCAG | 9820 fluorescence intensity (a.u.) |
| AAAATTTCCCTTTTTTTTATTTTTTCTGTGTCGCAATCTCCGGAGTCACCTAGTGCAG | 11200 fluorescence intensity (a.u.) |
| CCACACTTTTCTACTCTCATGGCCCACATGTCATACACTCCGGAGTCACCTAGTGCAG | 14300 fluorescence intensity (a.u.) |
| TAGGCCCAAGATGTTTTTGATTTTGGTCAAAGTCAAAGTACGGAGTCACCTAGTGCAG | 8330 fluorescence intensity (a.u.) |
| AGTGATGATAGCCCTAACATTTTAAATCGTGCTCTTTCATCGGAGTCACCTAGTGCAG | 9570 fluorescence intensity (a.u.) |
| TAAAGTTGTAGTTTGTACCTTCCATCACATATATGCATATCGGAGTCACCTAGTGCAG | 8380 fluorescence intensity (a.u.) |
| GTTTCTGCGTTTTTTATTCTTCCCGGCTATACTATAGCTTCGGAGTCACCTAGTGCAG | 9700 fluorescence intensity (a.u.) |
| CTATCCCAGCCGTCCGTTCCCACCTGACAACCGACCGAATCGGAGTCACCTAGTGCAG | 9790 fluorescence intensity (a.u.) |
| TTTGTAACTAAACTCGGCCTATTTTTCAATATTTCTTATCCGGAGTCACCTAGTGCAG | 9420 fluorescence intensity (a.u.) |
| TCCCCAAACCGAATACGTTTTCTCACTGTTGTCTCATCCACGGAGTCACCTAGTGCAG | 8670 fluorescence intensity (a.u.) |
| CTTGGTCTGGGGCTCGGGGATGTGGCGGCGGGCCGGCGGCCGGAGTCACCTAGTGCAG | 10800 fluorescence intensity (a.u.) |
| AACCCCAAAAAATCCAGCACCTTCTCGCACCGCCGCCGCCCGGAGTCACCTAGTGCAG | 9200 fluorescence intensity (a.u.) |
| GTATTTTTCTCTCTTATCGTGAGCCCGTGTATAAGGATTACGGAGTCACCTAGTGCAG | 8770 fluorescence intensity (a.u.) |
| ATACTCCCTTCGTTTCGAAATGTTTGACGCCGTTGACTTTCGGAGTCACCTAGTGCAG | 14300 fluorescence intensity (a.u.) |
| CTGCTCGCAACTTTTGCAATCTGTCTATGTTTTTTATGTTCGGAGTCACCTAGTGCAG | 12000 fluorescence intensity (a.u.) |
| AATCTATTTACCTTGCTTTCCTATGTTTTCTCGAGTGAACCGGAGTCACCTAGTGCAG | 9570 fluorescence intensity (a.u.) |
| TATGCTAAATTTGACATGTCTGCTGCCTATAAATCACCTGCGGAGTCACCTAGTGCAG | 8200 fluorescence intensity (a.u.) |
| ATCCACGTGCTTCGCCACCCAATCGTCTCACACTTGCATCCGGAGTCACCTAGTGCAG | 10200 fluorescence intensity (a.u.) |
| ACACACTTACTTATGGTTTGGGAGATATTTGATACATATGCGGAGTCACCTAGTGCAG | 8630 fluorescence intensity (a.u.) |
| AGTGTCGGTGTTGACTGAGGAGGGAGAAGCTGGGAGCGGCCGGAGTCACCTAGTGCAG | 8160 fluorescence intensity (a.u.) |
| TGGGAATTTCTAGCGTCCACAGCGAACGTGGTTATGTATTCGGAGTCACCTAGTGCAG | 10900 fluorescence intensity (a.u.) |
| ACCGACTTCTCCTTCCACGCTAGCTAGCTCAAACCACCACCGGAGTCACCTAGTGCAG | 8280 fluorescence intensity (a.u.) |
| TCTTGCGACGATCGTGTGGGGTGGGTTCGTGTGCTCTCTCCGGAGTCACCTAGTGCAG | 19500 fluorescence intensity (a.u.) |
| TCATTTTGTATTTTGTTGTCTCTGTCTTGCTGTTCCCTCGCGGAGTCACCTAGTGCAG | 8810 fluorescence intensity (a.u.) |
| GCTTTGGTACGTCATCTGTGTATAAGTCGATTTTTAAGTTCGGAGTCACCTAGTGCAG | 9710 fluorescence intensity (a.u.) |
| CTTCGCCGCCGGCCACTTGATCCGCCTCCTTTGCCGGACGCGGAGTCACCTAGTGCAG | 8720 fluorescence intensity (a.u.) |
| GATATCCAGTTTTGTGGTTTAGGGTCACGGATTAGATTTCCGGAGTCACCTAGTGCAG | 10100 fluorescence intensity (a.u.) |

16 consecutive records already listed, quoted:

| Sequence | binding signal |
| --- | --- |
| TGTTATGTATGTTTCATCTTGTATTATCCCATGTATCAGTCGGAGTCACCTAGTGCAG | 9820 fluorescence intensity (a.u.) |
| AAAATTTCCCTTTTTTTTATTTTTTCTGTGTCGCAATCTCCGGAGTCACCTAGTGCAG | 11200 fluorescence intensity (a.u.) |
| CCACACTTTTCTACTCTCATGGCCCACATGTCATACACTCCGGAGTCACCTAGTGCAG | 14300 fluorescence intensity (a.u.) |
| TAGGCCCAAGATGTTTTTGATTTTGGTCAAAGTCAAAGTACGGAGTCACCTAGTGCAG | 8330 fluorescence intensity (a.u.) |
| AGTGATGATAGCCCTAACATTTTAAATCGTGCTCTTTCATCGGAGTCACCTAGTGCAG | 9570 fluorescence intensity (a.u.) |
| TAAAGTTGTAGTTTGTACCTTCCATCACATATATGCATATCGGAGTCACCTAGTGCAG | 8380 fluorescence intensity (a.u.) |
| GTTTCTGCGTTTTTTATTCTTCCCGGCTATACTATAGCTTCGGAGTCACCTAGTGCAG | 9700 fluorescence intensity (a.u.) |
| CTATCCCAGCCGTCCGTTCCCACCTGACAACCGACCGAATCGGAGTCACCTAGTGCAG | 9790 fluorescence intensity (a.u.) |
| TTTGTAACTAAACTCGGCCTATTTTTCAATATTTCTTATCCGGAGTCACCTAGTGCAG | 9420 fluorescence intensity (a.u.) |
| TCCCCAAACCGAATACGTTTTCTCACTGTTGTCTCATCCACGGAGTCACCTAGTGCAG | 8670 fluorescence intensity (a.u.) |
| CTTGGTCTGGGGCTCGGGGATGTGGCGGCGGGCCGGCGGCCGGAGTCACCTAGTGCAG | 10800 fluorescence intensity (a.u.) |
| AACCCCAAAAAATCCAGCACCTTCTCGCACCGCCGCCGCCCGGAGTCACCTAGTGCAG | 9200 fluorescence intensity (a.u.) |
| GTATTTTTCTCTCTTATCGTGAGCCCGTGTATAAGGATTACGGAGTCACCTAGTGCAG | 8770 fluorescence intensity (a.u.) |
| ATACTCCCTTCGTTTCGAAATGTTTGACGCCGTTGACTTTCGGAGTCACCTAGTGCAG | 14300 fluorescence intensity (a.u.) |
| CTGCTCGCAACTTTTGCAATCTGTCTATGTTTTTTATGTTCGGAGTCACCTAGTGCAG | 12000 fluorescence intensity (a.u.) |
| AATCTATTTACCTTGCTTTCCTATGTTTTCTCGAGTGAACCGGAGTCACCTAGTGCAG | 9570 fluorescence intensity (a.u.) |

The results go on.

| Sequence | binding signal |
| --- | --- |
| GTACTTCTCATTCTTAATTTTCTTCCTTCTTGAGGGACATCGGAGTCACCTAGTGCAG | 10500 fluorescence intensity (a.u.) |
| GCGGGTTATTTGTAAAAGTCAATGATGGGCTATTTTGCAACGGAGTCACCTAGTGCAG | 12100 fluorescence intensity (a.u.) |
| GAGGAGAGAGTAGTAACCGTTAGTTTTGTGAATTTTATGACGGAGTCACCTAGTGCAG | 10400 fluorescence intensity (a.u.) |
| CCATCGCCATTGACACGGACACCTTACCTGTCACAAAGAACGGAGTCACCTAGTGCAG | 8160 fluorescence intensity (a.u.) |
| TGCTTGTCCTTATATATAGTGTTTGCTAATTAACGCGGGCCGGAGTCACCTAGTGCAG | 8120 fluorescence intensity (a.u.) |
| CGAGATAGGCGGGAGCTCGGAATGCGTGTGGGGTGGGCGCCGGAGTCACCTAGTGCAG | 8150 fluorescence intensity (a.u.) |
| CTCCTTCTGCTGTACACCTCGCGCAACTACTCCCTCCGTCCGGAGTCACCTAGTGCAG | 8520 fluorescence intensity (a.u.) |
| TGTACCTCATAGTTGATTCTGTGTTGCATTGGCTTTTACTCGGAGTCACCTAGTGCAG | 10000 fluorescence intensity (a.u.) |
| GAGACACTGCCTCACTATTATTATTGTTTGTCACTGTTCGCGGAGTCACCTAGTGCAG | 9530 fluorescence intensity (a.u.) |
| ATAGATTACTTACTCGTGGGCCGTATCCTAATCCAGCATCCGGAGTCACCTAGTGCAG | 10200 fluorescence intensity (a.u.) |
| TGCCCTGCCTGCTTTCTTCCTGGATCGTCTCCATGCTCTGCGGAGTCACCTAGTGCAG | 8680 fluorescence intensity (a.u.) |
| CACCACCAGCTCGCCGTCTCGTCTCCCTCCTCCGCTTCGCCGGAGTCACCTAGTGCAG | 9770 fluorescence intensity (a.u.) |
| GAATATGTAAATCTTATGGGTCGTTGTATTTGTTAGATATCGGAGTCACCTAGTGCAG | 8330 fluorescence intensity (a.u.) |
| GTTTGACACCGTGGACTTTTTTAAATATGTTTGACCATTCCGGAGTCACCTAGTGCAG | 11800 fluorescence intensity (a.u.) |
| GTTCACTCGAATGCTCGGACTTTTTACATTACATTAATCACGGAGTCACCTAGTGCAG | 9210 fluorescence intensity (a.u.) |
| CTGTGTCTAATTTTAATCATCCGTCTTATTTTTTTAAAAACGGAGTCACCTAGTGCAG | 9700 fluorescence intensity (a.u.) |
| CTCAATTCCATGGCACAAGTCTTCCTCTCACAGTGGGGCCCGGAGTCACCTAGTGCAG | 8570 fluorescence intensity (a.u.) |
| TGTTGCTGTTGATTAGCTCTCACCTAATTTGTTGTGTATGCGGAGTCACCTAGTGCAG | 8610 fluorescence intensity (a.u.) |
| GTTGCACAAGAAAAATATGGATGGGGTTATTTTCAAAATTCGGAGTCACCTAGTGCAG | 8430 fluorescence intensity (a.u.) |
| ATTATTAATAAAACTCATTCTATAACTCTGGACTAATTCGCGGAGTCACCTAGTGCAG | 8200 fluorescence intensity (a.u.) |
| GATCAAGCGGAAGTGGGTTGACTTGTCATTGGGTTTAGGTCGGAGTCACCTAGTGCAG | 8070 fluorescence intensity (a.u.) |
| CTCTTGATTTCAAGCGTTGATGCTGCACTTTACACACAAACGGAGTCACCTAGTGCAG | 8210 fluorescence intensity (a.u.) |
| ATCCTTCTCACCTATATGTTTATTACATAGCATCCTAATTCGGAGTCACCTAGTGCAG | 8090 fluorescence intensity (a.u.) |
| TTTTTAGGGTGTGGGTATTAGTTGGAAAATACAATAAATGCGGAGTCACCTAGTGCAG | 9530 fluorescence intensity (a.u.) |
| TGAATGACAAACGGGTCCCACGCATATTTTTTTATTTCTACGGAGTCACCTAGTGCAG | 9090 fluorescence intensity (a.u.) |
| CATTTGTAGTTTTATGTTTATTCTTTCGTCATCGAGTATCCGGAGTCACCTAGTGCAG | 8640 fluorescence intensity (a.u.) |
| CACCACCCCGGCCGCTTCCGCCACTTCACTCCACTCCACACGGAGTCACCTAGTGCAG | 13200 fluorescence intensity (a.u.) |
